Experimental data taken from PubChem BioAssay AID624297 (National Center for Advancing Translational Sciences (NCATS), 2012).
In all, about 340,000 compounds went through this assay and about 6,200 (1.8%) were called active. This list was built around the results that the source calls inconclusive (neither active nor inactive); the mix of calls is not that of the screen. The call rests on the fitted dose curve; in most records, active means well fitted activation curve with a large enough effect; inconclusive means small, poorly fitted or top-dose-only effect; inactive means no such curve, though single readings can be large or run the other way. Where the call is inconclusive, the potency comes from a doubtful curve fit.

assay: A quantitative high throughput screen for small molecules that induce DNA re-replication in SW480 colon adenocarcinoma cells.; further: nearly all actives have a fitted effect of over 55% in size; settings: Hoechst DNA content imaging, 48 h; series mostly up to 46.1 µM
Method in brief: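 Compounds, transferred as 23 nL by pin tool, were incubated with cells for 48 hr; DNA content per nucleus was then quantified by Hoechst staining and fluorescence plate imaging.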
Potency means the concentration at half of the fitted maximal effect.

SMILES | Potency
NC(=O)COc1ccc(/C=C2\C(=O)ON=C2c2ccccc2)cc1 | inconclusive: 25.9 µM [activator, partial curve, poor fit]
COc1ccccc1C(=O)NCCC(=O)N1CC(=O)Nc2ccccc21 | inactive
CCC1CCCCN1C(=O)c1cc2cc(Br)ccc2oc1=O (centres undefined) | inactive
Cc1ccc(NC(=O)CCc2c(C)nn(-c3ccc(N4CCOCC4)nn3)c2C)cc1 | inconclusive: 4.11 µM [activator, partial curve, poor fit]
O=[N+]([O-])c1ccc(CS(=O)c2ccccc2)cc1 (centres undefined) | inactive
COc1ccc(-c2cn3cccc(C)c3n2)cc1F | inactive
CCOC(=O)c1ccc(-c2ccc(C(=O)Nc3cccnc3)o2)cc1 | inconclusive: 32.6 µM [activator, partial curve, poor fit]
CC1CCN(C(=O)CCN2C(=O)/C(=C/c3cccs3)SC2=S)CC1 | active: 5.8 µM
CCN(Cc1cccc(OC)c1)CC1CCCN(CCc2cccc(OC)c2)C1 (centres undefined) | inconclusive: 14.6 µM [activator, single point]
O=C(OCN1C(=O)c2ccccc2C1=O)c1ccco1 | inconclusive: 3.26 µM [activator, single point]
CC(C)(C)C1C=C(Sc2ccccc2)C(=O)O1 (centres undefined) | inconclusive: 0.0041 µM [activator, full curve, poor fit]
COc1ccc(C(C)=O)cc1CS(=O)(=O)CC(=O)O | inactive
Cc1ccc(C)c(N(CC(=O)Nc2ccc(-c3nc4ccc(C)cc4s3)cc2)S(C)(=O)=O)c1 | inconclusive: 18.4 µM [activator, single point]
Cc1cccnc1CC(C)NC(=O)c1cc(COc2cncc(Cl)c2)on1 (centres undefined) | inconclusive: 16.4 µM [activator, single point]
Cc1nc(Oc2ccc(S(=O)(=O)N3CCOCC3)cc2Cl)c2c3c(sc2n1)CCCC3 | inconclusive: 32.6 µM [activator, partial curve, poor fit]
COc1ccc(OC)c(C2CC(c3ccccc3)=NN2C(=S)Nc2ccccc2)c1 (centres undefined) | active: 4.61 µM
CC(Cl)C(=O)Nc1ccccc1C#N (centres undefined) | inconclusive: 23.1 µM [activator, single point]
O=S(=O)(Nc1ccc2c(c1)OCO2)c1ccccc1 | inactive
CC(C)CNC(=S)N1CCC(c2nc(-c3ccc(F)cc3)no2)CC1 | inactive
CC(=O)CCC(=O)O | inactive
Cc1cc2c3c(c1)C1(C(=O)N3C(C)(C)CC2C)C(C#N)=C(N)Oc2n[nH]c(C)c21 (centres undefined) | inconclusive: 25.9 µM [activator, partial curve, poor fit]
Cc1cccc(NC2=C/C(=N/S(=O)(=O)c3cccs3)c3ccccc3C2=O)c1 | inconclusive: 5.17 µM [activator, full curve, poor fit]

SMILES | Potency
O=C(Nc1ccc(Cl)cc1)C1(S(=O)(=O)c2ccccc2)CC1 | inactive
C=CC[C@H](CC(=O)N(CCO)Cc1ccccc1)C(=O)N[C@H](COC(=O)[C@H](CC=C)CC(=O)OC(C)(C)C)Cc1c[nH]c2ccccc12 | inconclusive: 16.4 µM [activator, single point]
CC(C)(C)C(=O)CSc1ccc(S(=O)(=O)N2CCN(Cc3ccccc3)CC2)cn1 | inactive
O=C(Cc1ccc(Cl)cc1Cl)NCc1cccnc1 | inconclusive: 8.91 µM [activator, partial curve, poor fit]
COCCNC(=O)CN(CCc1ccccc1)S(=O)(=O)c1ccc(Br)cc1 | inconclusive: 32.6 µM [activator, partial curve, poor fit]
Cc1ccc(NC(=O)[C@H](Cc2ccccc2)NC(=O)[C@@H]2Cc3ccccc3CN2)c(C)c1 | inactive
CN(Cc1ccccc1)C(=O)c1ccc(NC(=O)Cc2ccc(NC(=O)C3CCCN(C(=O)C4CC4)C3)cc2)cc1 (centres undefined) | inactive
CNC[C@H]1Oc2ccc(NC(=O)Nc3ccc(OC)cc3)cc2C(=O)N([C@@H](C)CO)C[C@H]1C | inconclusive: 0.92 µM [activator, single point]
COc1cccc(-n2c(SCC(N)=O)nc3c([nH]c4ccccc43)c2=O)c1 | inconclusive: 35.5 µM [activator, single point]
CSc1nc2nc(C)c(C/C=C/c3ccccc3)c(=O)n2[nH]1 | inconclusive: 0.184 µM [activator, full curve, poor fit]
Cc1cc(C)c(C(=O)N2CCCC(CNS(=O)(=O)c3cccs3)C2)o1 (centres undefined) | inactive
COc1ccc(CCN(C)C(=O)Cc2ccc(-c3ccccc3)cc2)cc1OC | inconclusive: 20.6 µM [activator, partial curve, poor fit]
CCOC(=O)C1(CCOc2ccccc2)CCN(Cc2cc(OC)cc(OC)c2)CC1 | inconclusive: 29.1 µM [activator, single point]
COc1ccc(-c2cc(C)nc(SCC(=O)c3cccc([N+](=O)[O-])c3)n2)cc1 | inactive
CN1C2CCC1/C(=C\c1ccccc1)C(=O)/C2=C\c1ccccc1 | inconclusive: 29.1 µM [activator, single point]
COc1cccc(N=NC2C(=O)N(C(N)=S)N=C2C)c1 (centres undefined) | inconclusive: 23.1 µM [activator, single point]
O=c1cc(-c2ccccc2)cc(-c2ccccc2)n1O | inactive
CC(C)NC(=O)c1sc2nc(-c3cccs3)cc(-c3cccs3)c2c1N | inconclusive: 20.6 µM [activator, partial curve, poor fit]
CC(C)CN(C(=O)c1ccc(S(=O)(=O)N2CCOCC2)cc1)C1CCS(=O)(=O)C1 (centres undefined) | inactive
Cc1cc(=O)oc2cc(NC(=O)C3COc4ccccc4O3)ccc12 (centres undefined) | inconclusive: 29.1 µM [activator, single point]
COc1cc(/C=N/NC(=O)C(Cc2c[nH]c3ccccc23)NC(=O)OCc2ccccc2)cc([N+](=O)[O-])c1O (centres undefined) | inconclusive: 0.651 µM [activator, partial curve, poor fit]
O=C(CCl)Nc1ncc(S(=O)(=O)c2ccc([N+](=O)[O-])cc2)s1 | inconclusive: 23.1 µM [activator, single point]

Part of the list above in order of count of non-hydrogen atoms, largest number first.
SMILES | Potency
CCOC(=O)C1(CCOc2ccccc2)CCN(Cc2cc(OC)cc(OC)c2)CC1 | inconclusive: 29.1 µM [activator, single point]
CC(C)CN(C(=O)c1ccc(S(=O)(=O)N2CCOCC2)cc1)C1CCS(=O)(=O)C1 (centres undefined) | inactive
O=c1cc(-c2ccccc2)cc(-c2ccccc2)n1O | inactive
